According to patent US20200024362A1:
Changes are numbered by the printed parent chain. Results are given in words; binding and its absence hold for the method and conditions named. Some binding calls cover weakened binding; strength is not graded here.

Chains of the proteins cited; added tags and fusions are not shown. Lines headed by an entry give the natural chain unless they say otherwise; changes in a name come on top.
UniProt P03951: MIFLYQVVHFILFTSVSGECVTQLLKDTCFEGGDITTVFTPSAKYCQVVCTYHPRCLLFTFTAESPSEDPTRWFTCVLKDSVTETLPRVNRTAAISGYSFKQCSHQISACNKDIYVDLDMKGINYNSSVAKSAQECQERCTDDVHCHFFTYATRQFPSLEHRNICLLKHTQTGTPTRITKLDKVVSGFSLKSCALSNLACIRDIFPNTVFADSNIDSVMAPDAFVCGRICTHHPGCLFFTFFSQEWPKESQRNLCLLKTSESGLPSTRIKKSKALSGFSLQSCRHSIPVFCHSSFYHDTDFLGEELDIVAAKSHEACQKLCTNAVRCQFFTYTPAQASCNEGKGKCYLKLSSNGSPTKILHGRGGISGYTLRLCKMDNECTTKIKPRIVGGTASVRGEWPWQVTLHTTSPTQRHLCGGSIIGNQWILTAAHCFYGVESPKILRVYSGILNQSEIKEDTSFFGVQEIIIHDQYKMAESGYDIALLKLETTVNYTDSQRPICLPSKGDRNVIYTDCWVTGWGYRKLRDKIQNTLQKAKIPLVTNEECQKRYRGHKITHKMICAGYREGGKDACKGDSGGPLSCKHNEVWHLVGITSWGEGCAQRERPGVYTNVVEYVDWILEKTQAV

Key:
[1] = target: human coagulation factor XI (human) (UniProt P03951); test: SPR, antibody captured, FXI flowed
[2] = target: human coagulation factor XI (human) (UniProt P03951); test: SPR, antibody captured, wild type FXI flowed at one concentration
[3] = target: wild-type FXI with 6xHis tag (human) (UniProt P03951); test: SPR, His-tagged FXI immobilized, antibodies 5 ug/ml injected successively
[4] = target: human coagulation factor XI (human) (UniProt P03951); test: pull-down with biotinylated antibody from human plasma, Western blot for FXI
[5] = target: human coagulation factor XI (human) (UniProt P03951); test: SPR (Biacore T200), antibody captured on anti-human IgG CM5 chip, FXI flowed
[6] = target: human coagulation factor XI (human) (UniProt P03951); test: SPR (Biacore T200), antibody captured on anti-human IgG CM5 chip, FXI flowed, 1:1 fit
[7] = target: wild-type FXI with 6xHis tag (human) (UniProt P03951); test: SPR (Biacore T200), FXI on the chip, h-42A5 5 µg/mL injected after h-19F6 and washing
[8] = target: human coagulation factor XI (human) (UniProt P03951); test: pull-down of biotinylated antibody from human plasma with streptavidin beads, Western blot with mouse anti-human FXI IgG
[9] = target: wild-type FXI with 6xHis tag (human) (UniProt P03951); test: SPR (Biacore T200), FXI on the chip, antibodies 5 µg/mL injected one after the other at 30 µl/minute

Measured: binding

B1: h-42A5 (antibody, V domains shown)
VH: QVTLKESGPVLVKPTETLTLTCTVSGFSLTSYHLHWIRQPPGKALEWMGLMWRDGDTSYNSRLKSRLTISRDTSKSQVVLTMTNMDPVDTATYYCARGMTLATPFLYWGQGTLVTVSS
VL: DVVLTQTPLSLSVTPGQPASISCRSSQSLESSDGNTYLEWYLQKPGQSPQLLIYGVSNRFSGVPDRFSGSGSGTDFTLKISRVEAEDLGVYYCFQATRDPFTFGQGTKLEIKR
not listed: [9]
binds: all other assays above

B2: h-34F8 (antibody, V domains shown)
VH: QVQLQESGPGLVKPSETLSLTCTVSGFSLTTYHVHWVRQPPGKGLEWIGIMWRDGDTYYNSSLKSRVTISRDTSKNQVSLKLSSVTAADTAVYFCARGGTLTTPFTYWGQGTLVTVSS
VL: B1 VL with S12P, Q17E, S32R, L51V, I53L, F60L, L88V, R98H, D99G
binds: [1] | [6]

B3: h-19F6 (antibody, V domains shown)
VH: EVQLVESGGGLVQPGRSLRLSCTASGFTFSKYAMSWVRQAPGKGLEWVSAINYDGSTTYYADSVKGRFTLSRDNSKNTLYLQMNSLRAEDTAVYYCARHPFNNFGIWFAYWGQGTLVTVS
VL: QFQLTQPSSVSASVGDRVTITCERSSGDIGDSYVSWYQQKPGQPPKNVIYADDQRPSGVPDRFSGSIDGSGNSASLTISSLQAEDAADYFCQSYDSNIDFNPVFGGGTKLEVK
not listed: [7]
binds: all other assays above
